Experimental data published in article PMC6944463.
These are yes or no findings as the source states them, for the method shown. Binding seen in cells or lysates may run through a third protein. Binding calls can cover weak binding; strength is not graded here.

Amino acid sequences for entries named in this document (tags omitted). A change or cut given only in a name is not applied to a line headed by its entry.
UniProt Q96EK4: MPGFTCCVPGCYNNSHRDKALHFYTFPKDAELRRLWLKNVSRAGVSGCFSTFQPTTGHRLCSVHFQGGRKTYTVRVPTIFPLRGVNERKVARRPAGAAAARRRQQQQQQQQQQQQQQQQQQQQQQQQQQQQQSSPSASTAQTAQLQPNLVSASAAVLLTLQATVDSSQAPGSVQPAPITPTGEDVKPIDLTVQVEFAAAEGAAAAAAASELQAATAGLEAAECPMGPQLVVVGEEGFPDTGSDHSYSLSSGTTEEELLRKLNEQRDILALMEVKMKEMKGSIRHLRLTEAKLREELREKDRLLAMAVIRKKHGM

Biological target: THAP11 (Flag- or HA-epitope-tagged) (human) (UniProt Q96EK4)
Assay: co-IP; HEK-293 cells co-transfected with Flag- and HA-tagged THAP constructs; whole-cell lysates, anti-HA immunoprecipitation, immunoblot with anti-HA and anti-Flag

For “THAP11 HBM mutant (epitope-tagged) (from UniProt Q96EK4)”, the binding was “binds”.
